The list is a part of this screen's results and no random one: it gathers tests that were run many times, whatever their T/C, doses with no T/C, and many T/C values between a quarter and a half above the control. Other doses and runs of a compound stand elsewhere. T/C is the treated group as % of the vehicle group. Some entries give survivors of the animals treated and no T/C: the source holds a T/C of zero for them, seemingly a mark for toxic or unscored doses. Some doses without a T/C left all or most animals alive at the check, yet need not have been tolerated: the source hardly ever lists a survival T/C far under the control, and the zero likely stands for such cases as well. Counts of survivors are from the toxicity check (mostly the fifth day) where no day follows; animals may have died later. Schedules are NCI's codes, read here as Q, the interval in days (D) or hours (H), X, the number of doses. Where survival is the endpoint, the PubChem record calls one and a half times the control and up active, and a quarter to a half above the control has no call in these data; cut-offs in other NCI protocols can differ. Some T/C values are followed by the survivors on the day toxicity was checked, most often the fifth; where none is given, no animal had died by that day. Some doses were run more than once; their values stand side by side, smallest first.
System: CD2F1 mice, L1210 leukemia ip, survival T/C
Test: NCI In Vivo Anticancer Drug Screen. Data for tumor model L1210 Leukemia (intraperitoneal) in CD2F1 (CDF1) mice
Details: higher T/C = longer survival
How it was run: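 Tumor-bearing mice (transplanted tumor) were split into treated and vehicle control groups, and the measured endpoint of each treated group was divided by that of its vehicle controls.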

[1] = T/C endpoint: mean survival time, dose: 400.0 mg/kg/injection, schedule: Q01DX009 (ip), vehicle: other
[2] = T/C endpoint: mean survival time, dose: 600.0 mg/kg/injection, schedule: Q01DX009 (ip), vehicle: other
[3] = T/C endpoint: mean survival time, dose: 400.0 mg/kg/injection, schedule: Q01DX001 (ip), vehicle: saline with Tween-80

## CC(O)CNCCNC(=O)CNC(=O)C=[N+]=[N-] (centres undefined)
[1]
  T/C: 132 % of control
  survivor count: 6 of 6
[2]
  T/C: 132 % of control
  survivor count: 6 of 6
T/C endpoint: mean survival time, dose: 800.0 mg/kg/injection, schedule: Q01DX009 (ip), vehicle: other
  survivor count: 6 of 6
T/C endpoint: mean survival time, dose: 1000.0 mg/kg/injection, schedule: Q01DX009 (ip), vehicle: other
  survivor count: 6 of 6

## Nc1nc2ncc(CSc3ccc(C(=O)NC(CCC(=O)O)C(=O)O)cc3)nc2c(=O)[nH]1 (centres undefined)
T/C endpoint: mean survival time, dose: 8.0 mg/kg/injection, schedule: Q01DX009 (ip), vehicle: sodium bicarbonate
  T/C: 127 % of control

## O=C(O)CCn1cccc1
[3]
  survivor count: 0 of 6

## C/C(=N\N=C(/[Se])N1CC2CCC(CC2)C1)c1ccccn1
T/C endpoint: median survival time, dose: 6.25 mg/kg/injection, schedule: Q01DX009 (ip), vehicle: Klucel (hydroxypropylcellulose) (HPC)
  T/C: 125 % of control
T/C endpoint: median survival time, dose: 12.5 mg/kg/injection, schedule: Q01DX009 (ip), vehicle: Klucel (hydroxypropylcellulose) (HPC)
  survivor count: 6 of 6
T/C endpoint: median survival time, dose: 25.0 mg/kg/injection, schedule: Q01DX009 (ip), vehicle: Klucel (hydroxypropylcellulose) (HPC)
  survivor count: 1 of 6

## C=CC1C[N+]2(SS(=O)(=O)O)CCC1CC2C(O)c1ccnc2ccc(OC)cc12 (centres undefined)
T/C endpoint: mean survival time, dose: 300.0 mg/kg/injection, schedule: Q04DX003 (ip), vehicle: saline
  survivor count: 4 of 6

## COc1ccc(N(C)C/C(CN)=N/O)cc1
T/C endpoint: mean survival time, dose: 400.0 mg/kg/injection, schedule: Q01DX001 (ip), vehicle: Klucel (hydroxypropylcellulose) (HPC)
  survivor count: 3 of 6

## COc1cc2ccc3cnccc3c2cc1OC
T/C endpoint: mean survival time, dose: 400.0 mg/kg/injection, schedule: Q01DX009 (ip), vehicle: Klucel (hydroxypropylcellulose) (HPC)
  survivor count: 1 of 6

## Cc1sc(C)c(CCl)c1CCl
T/C endpoint: mean survival time, dose: 100.0 mg/kg/injection, schedule: Q01DX001 (ip), vehicle: saline with Tween-80
  survivor count: 3 of 6
T/C endpoint: mean survival time, dose: 200.0 mg/kg/injection, schedule: Q01DX001 (ip), vehicle: saline with Tween-80
  survivor count: 3 of 6
[3]
  survivor count: 0 of 6

## CC(C)=CC(=O)OC1C2C(C)=CC(=O)C(O)C2(C)C2C3(O)OCC24C(CC(=O)OC14)C(C)C3O (centres undefined)
T/C endpoint: mean survival time, dose: 0.25 mg/kg/injection, schedule: Q01DX009 (ip), vehicle: saline with Tween-80
  T/C: 128 % of control
T/C endpoint: mean survival time, dose: 0.5 mg/kg/injection, schedule: Q01DX009 (ip), vehicle: saline with Tween-80
  T/C: 133 % of control [5 of 6 alive]
T/C endpoint: mean survival time, dose: 1.0 mg/kg/injection, schedule: Q01DX009 (ip), vehicle: saline with Tween-80
  T/C: 133 % of control
T/C endpoint: mean survival time, dose: 2.0 mg/kg/injection, schedule: Q01DX009 (ip), vehicle: distilled water + Tween-80
  T/C: 130 % of control [4 of 6 alive]
T/C endpoint: median survival time, dose: 0.25 mg/kg/injection, schedule: Q01DX009 (ip), vehicle: distilled water + Tween-80 + alcohol
  T/C: 125 % of control
T/C endpoint: median survival time, dose: 0.5 mg/kg/injection, schedule: Q01DX009 (ip), vehicle: distilled water + Tween-80 + alcohol
  T/C: 132 and 138 % of control
T/C endpoint: median survival time, dose: 1.0 mg/kg/injection, schedule: Q01DX009 (ip), vehicle: distilled water + Tween-80 + alcohol
  T/C: 130, 134, 141 % of control
T/C endpoint: median survival time, dose: 2.0 mg/kg/injection, schedule: Q01DX009 (ip), vehicle: distilled water + Tween-80 + alcohol
  T/C: 139 and 144 % of control
T/C endpoint: median survival time, dose: 4.0 mg/kg/injection, schedule: Q01DX009 (ip), vehicle: distilled water + Tween-80 + alcohol
  survivor count: 4 of 6

## CC(C)NC(=O)OCc1c(COC(=O)NC(C)C)c(-c2ccc(Cl)c(Cl)c2)n2c1CCC2
T/C endpoint: mean survival time, dose: 25.0 mg/kg/injection, schedule: Q01DX009 (ip), vehicle: distilled water + Tween-80
  T/C: 130 % of control
T/C endpoint: mean survival time, dose: 50.0 mg/kg/injection, schedule: Q01DX009 (ip), vehicle: distilled water + Tween-80
  T/C: 126 % of control [5 of 6 alive]
T/C endpoint: mean survival time, dose: 50.0 mg/kg/injection, schedule: Q01DX009 (ip), vehicle: saline with Tween-80
  T/C: 132 % of control
T/C endpoint: mean survival time, dose: 100.0 mg/kg/injection, schedule: Q01DX009 (ip), vehicle: distilled water + Tween-80
  T/C: 134 % of control
T/C endpoint: mean survival time, dose: 200.0 mg/kg/injection, schedule: Q01DX009 (ip), vehicle: distilled water + Tween-80
  T/C: 129 % of control [5 of 6 alive]
T/C endpoint: mean survival time, dose: 200.0 mg/kg/injection, schedule: Q01DX009 (ip), vehicle: saline with Tween-80
  survivor count: 6 of 6
T/C endpoint: median survival time, dose: 400.0 mg/kg/injection, schedule: Q01DX005 (ip), vehicle: saline with Tween-80
  T/C: 140 % of control

## C=CCSc1ncnc2c1ncn2C1OC(CO)C(O)C1O (centres undefined)
T/C endpoint: mean survival time, dose: 58.0 mg/kg/injection, schedule: Q01DX009 (ip), vehicle: carboxymethylcellulose (CMC)
  T/C: 131 % of control
T/C endpoint: mean survival time, dose: 200.0 mg/kg/injection, schedule: Q01DX009 (ip), vehicle: carboxymethylcellulose (CMC)
  T/C: 140 % of control

## COc1ccc2c(c1)n([O-])c1ccccc1[n+]2=O
T/C endpoint: median survival time, dose: 100.0 mg/kg/injection, schedule: Q01DX005 (ip), vehicle: saline with Tween-80
  T/C: 129 and 135 % of control [5 of 6 alive]
T/C endpoint: median survival time, dose: 167.0 mg/kg/injection, schedule: Q01DX005 (ip), vehicle: saline with Tween-80
  survivor count: 0 of 5
T/C endpoint: median survival time, dose: 200.0 mg/kg/injection, schedule: Q01DX005 (ip), vehicle: saline with Tween-80
  survivor count: 0 of 6
T/C endpoint: median survival time, dose: 277.78 mg/kg/injection, schedule: Q01DX005 (ip), vehicle: saline with Tween-80
  survivor count: 0 of 6
T/C endpoint: median survival time, dose: 278.0 mg/kg/injection, schedule: Q01DX005 (ip), vehicle: saline with Tween-80
  survivor count: 0 of 5

## [CH3][Sn]([CH3])([Br])[CH2]CCCBr
T/C endpoint: mean survival time, dose: 25.0 mg/kg/injection, schedule: Q01DX009 (ip), vehicle: saline
  survivor count: 0 of 3

## CCOP(=O)(OCC)C1=C(CC)CC1
T/C endpoint: mean survival time, dose: 150.0 mg/kg/injection, schedule: Q01DX001 (ip), vehicle: other
  survivor count: 6 of 6
T/C endpoint: mean survival time, dose: 300.0 mg/kg/injection, schedule: Q01DX001 (ip), vehicle: other
  survivor count: 0 of 6

## C=CC(=O)O
T/C endpoint: mean survival time, dose: 14.0 mg/kg/injection, schedule: Q01DX009 (ip), vehicle: acetone
  survivor count: 6 of 6
T/C endpoint: mean survival time, dose: 21.0 mg/kg/injection, schedule: Q01DX009 (ip), vehicle: acetone
  survivor count: 6 of 6
T/C endpoint: mean survival time, dose: 25.0 mg/kg/injection, schedule: Q01DX009 (ip), vehicle: saline with Tween-80
  survivor count: 0 of 6
T/C endpoint: mean survival time, dose: 25.0 mg/kg/injection, schedule: Q04DX003 (ip), vehicle: Klucel (hydroxypropylcellulose) (HPC)
  survivor count: 1 of 3
T/C endpoint: mean survival time, dose: 50.0 mg/kg/injection, schedule: Q04DX003 (ip), vehicle: saline with Tween-80
  survivor count: 4 of 6

## Cc1ncnc2c1ncn2C1OC(CO)C(O)C1O (centres undefined)
T/C endpoint: mean survival time, dose: 2.0 mg/kg/injection, schedule: Q01DX005 (ip), vehicle: saline
  T/C: 125 % of control
T/C endpoint: mean survival time, dose: 8.0 mg/kg/injection, schedule: Q01DX005 (ip), vehicle: saline
  survivor count: 4 of 6

## FC(F)(F)c1cccc(C(OCCN2CCCC2)c2ccccc2)c1 (centres undefined)
T/C endpoint: mean survival time, dose: 100.0 mg/kg/injection, schedule: Q04DX003 (ip), vehicle: saline
  survivor count: 0 of 6
T/C endpoint: mean survival time, dose: 200.0 mg/kg/injection, schedule: Q04DX003 (ip), vehicle: saline
  survivor count: 0 of 6
T/C endpoint: mean survival time, dose: 400.0 mg/kg/injection, schedule: Q04DX003 (ip), vehicle: saline
  survivor count: 0 of 6

## CN[C@H]1CCc2cc(OC)c(OC)c(OC)c2-c2ccc(OC)c(=O)cc21
T/C endpoint: mean survival time, dose: 5.0 mg/kg/injection, schedule: Q01DX009 (ip), vehicle: saline
  T/C: 125 and 144 % of control
T/C endpoint: mean survival time, dose: 5.0 mg/kg/injection, schedule: Q01DX009 (ip), vehicle: water
  T/C: 126 % of control
T/C endpoint: mean survival time, dose: 10.0 mg/kg/injection, schedule: Q01DX007 (ip), vehicle: saline
  T/C: 130 % of control
T/C endpoint: mean survival time, dose: 10.0 mg/kg/injection, schedule: Q01DX009 (ip), vehicle: saline
  T/C: 130 % of control
T/C endpoint: mean survival time, dose: 10.0 mg/kg/injection, schedule: Q03DX003 (ip), vehicle: saline
  T/C: 125 % of control
T/C endpoint: mean survival time, dose: 40.0 mg/kg/injection, schedule: Q01DX009 (ip), vehicle: saline
  survivor count: 6 of 6
T/C endpoint: mean survival time, dose: 60.0 mg/kg/injection, schedule: Q01DX009 (ip), vehicle: saline
  survivor count: 5 of 6
T/C endpoint: median survival time, dose: 5.0 mg/kg/injection, schedule: Q01DX009 (ip), vehicle: saline
  T/C: 127 % of control

## CC(=O)Nc1cc(NC(C)=O)cc(N(CCCl)CCCl)c1
T/C endpoint: mean survival time, dose: 100.0 mg/kg/injection, schedule: Q01DX005 (ip), vehicle: water
  survivor count: 5 of 6
T/C endpoint: mean survival time, dose: 200.0 mg/kg/injection, schedule: Q01DX005 (ip), vehicle: water
  survivor count: 0 of 6
T/C endpoint: mean survival time, dose: 400.0 mg/kg/injection, schedule: Q01DX005 (ip), vehicle: water
  survivor count: 0 of 6

— PubChem BioAssay AID256 (DTP/NCI, 2004)
